PubChem BioAssay AID2685 (National Center for Advancing Translational Sciences (NCATS), 2010)
This is one part of the list. These are further read-outs of the screen, such as a control signal, another cell line or another target. No call is given for them. Compounds called inactive in the main read-out are mostly missing here. Potencies come from curve fits of mixed quality, noted in brackets.

Test: qHTS Assay for Lipid Storage Modulators in Drosophila S3 Cells;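 on cell number change: cells counted by Cell Tracker Red CMTPX staining in the red channel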
Settings: BODIPY lipid droplet fluorescence, 18-24 h; for cell number change: measured here: cell count max response, cells fed with added oleic acid
Outline: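 Laser-scanning cytometry quantifies lipid droplet accumulation (500–530 nm total intensity; droplet/cell object ratio) in oleic acid-fed (400 uM added) Drosophila S3 cells treated with a concentration series. 20 uM Triacsin C defined 100% inhibition.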

[1] = measured here: lipid fluorescence (Fed channel) AC50, cells fed with added oleic acid
[2] = measured here: cell number channel AC50, cells fed with added oleic acid

SMILES	cell number change [%]	AC50 [1]	AC50 [2]
CC(=O)c1cccc(CN2CCN(C3CCCC3)C(CCO)C2)c1 (stereo not drawn)	-5.36	3.26 µM [falling, single point]	
Cc1ccc(NC(=O)C(=O)NCC2OCCc3ccccc32)cc1 (stereo not drawn)	8.19		3.26 µM [rising, single point]
O=C(Nc1cc(Cl)ccc1Cl)C1CC(=O)N(c2ccc(Br)cc2)C1 (stereo not drawn)	-20		0.13 µM [falling, full curve, poor fit]
Cc1ccc(CNC(=O)c2cccnc2Cl)cc1	-23.6		
O=c1c2ccccc2oc2nc(-c3cccs3)n(CCc3ccccc3)c(=O)c12	131	10.3 µM [rising, partial curve, poor fit]	16.4 µM [rising, partial curve]
NC(=O)c1ccc(NC(=O)CS(=O)(=O)c2cn(CC(=O)N3CCCC3)c3ccccc23)cc1		7.31 µM [rising, partial curve]	
Cc1sc2c(c1C)C(=O)NC(c1cccc(O)c1)N2 (stereo not drawn)	15.1	0.103 µM [falling, full curve, poor fit]	
C/C(=N\O)c1noc(C)c1C(=O)Nc1nccs1	-6.85	16.4 µM [falling, single point]	
COC(=O)C(C)Oc1ccc(=O)[nH]n1 (stereo not drawn)	-0.666		
N#Cc1c(NC2CCCCC2)nc(-c2ccco2)c2c1CCCC2		3.26 µM [falling, partial curve]	0.13 µM [falling, full curve, poor fit]
O=C1N/C(=C\c2nc3ccccc3s2)c2ccccc21	49.3	0.461 µM [rising, partial curve]	29.1 µM [rising, single point]
CCN(CC)CCOc1nc(C)nc2c1oc1ccccc12	4.99	1.3 µM [falling, full curve]	
CC(=O)c1cn(C)c(=O)[nH]c1=O	17.4		
CC(C)CC(=O)Nc1nc(=S)ss1	-21.2	0.651 µM [falling, full curve, poor fit]	
Oc1ccccc1N=N/C(=N/Nc1ccccc1O)c1ccccc1	22.4	0.651 µM [rising, full curve, poor fit]	
O=C(CNS(=O)(=O)c1ccc(F)c(Cl)c1)NCCc1ccccc1	16.8	1.84 µM [rising, partial curve]	0.461 µM [rising, full curve]
CC(C)C[C@@H]1NC(=O)N(CCCn2ccnc2)C1=O	8.33	10.3 µM [rising, partial curve]	
COc1ccc(OC)c(CCNC(=O)Cn2nc(C)c3c(C)n(-c4ccc(C)cc4)nc3c2=O)c1	1.15	29.1 µM [rising, single point]	
Oc1ccc(Cl)cc1N=Nc1ccccc1	-19.2	29.1 µM [falling, single point]	
COC(=O)N1CC(c2ccccc2)CC1=O (stereo not drawn)	-7.05		1.16 µM [falling, full curve, poor fit]
O=C(COC(=O)Cc1ccccc1F)Nc1ccc2[nH]c(=O)[nH]c2c1	0.724	20.6 µM [falling, single point]	

SMILES	cell number change [%]	AC50 [1]	AC50 [2]
Cc1cnc(=O)[nH]c1SCC(=O)c1ccc(F)cc1	-20.3		
O=C(NC1(Cc2ccc(O)cc2)CCCCC1)c1ccccc1		7.31 µM [falling, partial curve]	
COc1ccc(C(C#N)c2nc3ccccc3nc2Cl)cc1 (stereo not drawn)	66.9	0.58 µM [falling, single point]	
Cc1cc(C)cc(OCC(=O)Nc2ccccc2N2CCCCC2)c1	33.7	0.82 µM [rising, single point]	1.84 µM [rising, full curve, poor fit]
C=CCC(Nc1ccco1)c1ccccc1 (stereo not drawn)	-31.6		32.6 µM [falling, single point]
O=C(CSc1nnc(-c2cccnc2)n1Cc1ccco1)Nc1nc(-c2ccc(F)cc2)cs1	-1.03		
CC1CN(C(=O)C2CCCCC2)C(C)CN1C(=O)C1CCCCC1 (stereo not drawn)	1.37	6.51 µM [rising, single point]	
COc1cc(C2C3C(=O)N(Cc4ccccc4)C(=O)C3ON2c2ccccc2)cc(OC)c1OC (stereo not drawn)	-19.1	0.116 µM [rising, full curve, poor fit]	
CCOc1cc(C2/C(=C(/O)c3ccc(S(=O)(=O)N4CCCCC4)cc3)C(=O)C(=O)N2CCOC)ccc1O (stereo not drawn)	11.6		
COc1ccc(-c2nn(CCC#N)cc2/C=N/O)cc1OC	43.7	6.51 µM [falling, single point]	7.31 µM [rising, partial curve]
COc1ccc(NS(=O)(=O)c2cccc(C(=O)NNC(=O)c3cccn3C)c2)cc1		23.1 µM [rising, single point]	
Cc1ccc(N(CC(=O)N2CCN(C3CCCCC3)CC2)S(=O)(=O)c2cccnc2)cc1	10.2		
Nc1nonc1-n1nnc(C(=O)N/N=C/c2ccco2)c1CSc1ccccc1	96		14.6 µM [rising, partial curve, poor fit]
COc1ccc(-c2nnc3sc(CN4C(=O)c5ccccc5C4=O)nn23)cc1	2.09		
Cc1ccc(Cl)cc1NC(=O)CCC(=O)Nc1cc(Cl)ccc1C	0.478	0.00517 µM [rising, full curve]	
O=C(C1=C(O)C(=O)N(CCCN2CCOCC2)C1c1ccccn1)c1cccs1 (stereo not drawn)	41	25.9 µM [rising, partial curve]	29.1 µM [rising, single point]
O=C(Cc1cccs1)N/N=C\c1ccc([N+](=O)[O-])s1	-48.8	13 µM [falling, partial curve]	9.2 µM [falling, partial curve, poor fit]
CCCNC(=O)COC(=O)/C=C/c1cccc(F)c1	35.9		8.2 µM [rising, partial curve, poor fit]
CSCC[C@H](NC(=O)c1ccc2c(c1)OCO2)c1nnc2ccccn12	5.34		
Cc1ccc(NC(=O)c2cc3ccccc3o2)cc1S(=O)(=O)N(C)C	38.7	0.92 µM [rising, partial curve]	0.0651 µM [rising, full curve, poor fit]
CN(CC(=O)Nc1ccc(Cl)cc1)C(=O)c1ccc(S(=O)(=O)Nc2ccccc2)cc1			1.3 µM [rising, full curve, poor fit]

Some of these compounds in order of molecular weight, falling.
SMILES	cell number change [%]	AC50 [1]	AC50 [2]
Cc1ccc(Cl)cc1NC(=O)CCC(=O)Nc1cc(Cl)ccc1C	0.478	0.00517 µM [rising, full curve]	
O=C(Cc1cccs1)N/N=C\c1ccc([N+](=O)[O-])s1	-48.8	13 µM [falling, partial curve]	9.2 µM [falling, partial curve, poor fit]
CCCNC(=O)COC(=O)/C=C/c1cccc(F)c1	35.9		8.2 µM [rising, partial curve, poor fit]

(listing goes on)

SMILES	cell number change [%]	AC50 [1]	AC50 [2]
O=C(OCN1C(=O)c2ccccc2C1=O)c1cccnc1SC(F)F	-11.3		
COC(C(=O)Nc1ccnn1C1CCN(Cc2ccc(CO)o2)CC1)c1ccccc1 (stereo not drawn)	-21.8		
Cc1nn(C)c(C(=O)N/N=C/c2ccc(-c3ccccc3)cc2)c1Cl	12.9	25.9 µM [rising, single point]	
COc1ccc(OCCN(C)C(=O)c2cccc(S(=O)(=O)N(C)c3ccccc3)c2)cc1	26	2.91 µM [rising, full curve]	1.84 µM [rising, full curve, poor fit]
CN(C(=O)CSc1nnc(NCc2ccccc2)s1)C1CCS(=O)(=O)C1 (stereo not drawn)	-7.08	0.411 µM [rising, single point]	
O=C(COC(=O)Cc1ccccc1F)NNC(=O)c1ccc([N+](=O)[O-])cc1	-25		
CCOC(=O)c1oc2ccc(/C=N/O)c(Cl)c2c1C	10.1	6.51 µM [falling, single point]	4.61 µM [falling, single point]
O=C(N/N=C/c1ccc([N+](=O)[O-])cc1)c1cccc(N2CCCC2=O)c1		29.1 µM [falling, single point]	
Cc1cc(OCC(=O)NCc2ccccn2)c2c(C)cc(=O)oc2c1	-3.06	14.6 µM [falling, single point]	
Cc1ccc(OCC(=O)N(C)CCc2ccccn2)cc1	23.8	9.2 µM [rising, partial curve]	
Fc1ccccc1CSc1ncnc2sc3c(c12)CCCC3	17	2.59 µM [rising, partial curve, poor fit]	6.51 µM [rising, single point]
O=C(CSc1nc2ccccc2c(=O)n1-c1ccccc1)N1CCN(CCO)CC1	3.98	0.164 µM [falling, full curve, poor fit]	
COc1ccc(S(=O)(=O)c2cnc3ccc(OC)cc3c2N2CCC3(CC2)OCCO3)cc1	34.8	20.6 µM [rising, partial curve]	4.11 µM [rising, partial curve]
O=C1C(Cc2ccc(F)cc2)SC(=Nc2ccccc2)N1c1ccccc1 (stereo not drawn)	14.6	16.4 µM [rising, single point]	
CCOC(=O)C1=C(N)Oc2cc(C)oc(=O)c2C1c1cccnc1 (stereo not drawn)	37.3		0.651 µM [rising, full curve]
CCn1c(SCC(=O)Nc2nonc2C)nnc1-c1ccoc1C	-7.85	0.231 µM [falling, full curve]	
COc1ccc(Cl)cc1-n1c(C)ccc1C	-7.47		0.259 µM [falling, full curve, poor fit]
Cc1nc(N2CCN(c3ccccn3)CC2)c2c(C)c(C(=O)N3CCN(c4cccc(Cl)c4)CC3)sc2n1	196	29.1 µM [rising, single point]	29.1 µM [rising, single point]
CC(C)NC(=O)/C(C#N)=C\c1ccc(N(C)C)c(Br)c1	-23.3		2.31 µM [falling, partial curve]
